The record followed here is patent publication US20160130327A1.

Chains of the proteins cited; added tags and fusions are not shown. Residues count along the entry.
UniProt P12824, residues 24-743: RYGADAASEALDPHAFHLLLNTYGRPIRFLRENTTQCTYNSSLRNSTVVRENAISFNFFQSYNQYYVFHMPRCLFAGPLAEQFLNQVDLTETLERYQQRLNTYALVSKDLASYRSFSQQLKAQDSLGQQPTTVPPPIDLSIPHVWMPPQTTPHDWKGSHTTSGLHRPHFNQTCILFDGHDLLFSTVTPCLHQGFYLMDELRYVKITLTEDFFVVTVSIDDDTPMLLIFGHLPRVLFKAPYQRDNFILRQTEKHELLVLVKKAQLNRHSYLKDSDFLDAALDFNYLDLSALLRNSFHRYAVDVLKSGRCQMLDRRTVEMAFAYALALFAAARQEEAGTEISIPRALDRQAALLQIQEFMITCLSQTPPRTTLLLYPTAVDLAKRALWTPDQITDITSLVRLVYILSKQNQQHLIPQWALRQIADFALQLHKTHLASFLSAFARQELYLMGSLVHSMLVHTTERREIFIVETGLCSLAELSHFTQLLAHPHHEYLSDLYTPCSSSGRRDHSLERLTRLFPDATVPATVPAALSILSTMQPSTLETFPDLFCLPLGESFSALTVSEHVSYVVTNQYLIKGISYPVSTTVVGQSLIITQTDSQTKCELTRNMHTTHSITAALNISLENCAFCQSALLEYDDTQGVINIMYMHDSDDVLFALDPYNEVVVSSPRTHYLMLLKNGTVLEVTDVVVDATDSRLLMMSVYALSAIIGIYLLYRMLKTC

This assay has as its target gH (UL75) (human cytomegalovirus (CMV)) (UniProt P12824). In words: Western blot of denatured CMV virions. On the technique in general: In western blotting, separated proteins are transferred to a membrane and probed.

Results are given in words; binding and its absence hold for the method and conditions named. Some results given as binding are weak or reduced against the parent protein; the word gives no strength.

B1: 347.3 (antibody, V domains shown)
VH: QSLEESEGRLVTPGTPLTLTCTVSGIDLSTYAMNWVRQAPGKGLEWIGIIGSSGGAYYASWAKGRCTISKTSTTVDLKITSPTTEDTATYFCAVSLYTYDDYADYFLWGPGTLVTISS
VL: ELVLTQSPSLSASLGTTARLTCTLSTGYSVGKYPLVWLQQVPGRPPRYLLTYHTEEFKHQGSGVHSRFSGSKDTSENSFVLRIFGLQPEDEADYYCVTAHPTESSLHYVFGGGTQLTVT
Take B1: the binding entry is “binds”.

B2: 212.6 (antibody, V domains shown)
VH: QSLEESGGRLVTPGTPLTLTCTVSGFSLSSYAMSWVRQAPGKGLEWIGIIGSSGNTYYASWAKGRFTISKTSTTVDLKITSPTTEDTATYFCARGGYSYDDYTPFDLWGPGTLVTVSS
VL: ELVLTQSPSLSASLGTTARLTCTLSTGYSVGKYPLVWLQQVPGRPPRYLLTYHTEEFKHQGSGVHSRFSGSKDTSENAGVLSISGLQPEDEADYYCATAHATESSLHYVFGGGTQLTVT
Turning to B2, the binding result is recorded as “binds”.

B3: 58.5 (antibody, V domains shown)
VH: QSLEESGGRLVTPGGSLTLTCTVSGFSLSAYSVSWVRQAPGKGLEWIGIIGHSGNTYYASWAKGRFTISKTSTTVDLKITSLTTEDTATYFCAREDYRYGDYGYYWDFNFWGPGTLVTISS
VL: ELDLTQTASPVSAPVGGTVTINCQASQNIYSNLAWYQQKPGQPPKLLIYGASTLASGVSSRFKGSRSGTEFTLTISDLECADAATYYCQSYVYSSSTADTFGGGTEVVVK
Take B3: the binding result is “binds”.

B4: 223.4 (antibody, V domains shown)
VH: QSLEESGGRLVTPGTPLTLTCTVSGFSLSAYSVSWVRQAPGKGLEWIGIIGHSGNTYYANWAKGRFTISKTSTTVDLKITSLTIEDTATYFCAREDYRYGDYGYYWDFNFWGPGTLVTISS
VL: ELVMTQTPSPVSAPVGGTVTISCQASRSVYNENYVAWFQHRPGQPPKLLIYTTSILASGVPSRFKGRGSGTQFTLTISDVQCDDAATYYCAGDYDDNEENAFGGGTELEIL
Consider B4, for which the binding entry is on record as “binds”.
